In the supplement of paper PMC7666118:
The list shows a part of the results.

Amino acid sequences for entries named in this document (tags omitted). A change or cut given only in a name is not applied to a line headed by its entry.
UniProt Q9BUL5: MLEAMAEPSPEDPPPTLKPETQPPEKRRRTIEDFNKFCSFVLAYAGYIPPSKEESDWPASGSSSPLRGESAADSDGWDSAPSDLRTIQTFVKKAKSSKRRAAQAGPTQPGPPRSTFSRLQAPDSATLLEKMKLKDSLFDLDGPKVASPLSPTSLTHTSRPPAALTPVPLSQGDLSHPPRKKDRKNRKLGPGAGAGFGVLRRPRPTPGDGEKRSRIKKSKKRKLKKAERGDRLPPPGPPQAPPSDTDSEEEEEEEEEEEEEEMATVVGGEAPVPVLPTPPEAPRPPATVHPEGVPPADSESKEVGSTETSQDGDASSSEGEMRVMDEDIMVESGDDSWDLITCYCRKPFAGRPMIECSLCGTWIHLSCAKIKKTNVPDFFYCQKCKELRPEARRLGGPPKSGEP
UniProt P22234: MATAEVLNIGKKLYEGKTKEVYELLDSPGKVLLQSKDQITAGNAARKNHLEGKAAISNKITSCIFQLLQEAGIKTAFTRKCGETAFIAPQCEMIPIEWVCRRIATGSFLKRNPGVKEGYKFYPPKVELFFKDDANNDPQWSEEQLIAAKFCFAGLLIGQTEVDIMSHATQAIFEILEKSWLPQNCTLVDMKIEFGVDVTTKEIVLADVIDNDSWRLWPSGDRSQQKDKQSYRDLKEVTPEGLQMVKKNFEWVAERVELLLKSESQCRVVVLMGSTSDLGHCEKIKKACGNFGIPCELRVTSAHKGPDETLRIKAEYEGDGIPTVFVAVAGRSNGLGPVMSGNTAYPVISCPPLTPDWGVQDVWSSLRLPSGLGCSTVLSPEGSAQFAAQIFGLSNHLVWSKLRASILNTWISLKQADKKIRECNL
UniProt O60568: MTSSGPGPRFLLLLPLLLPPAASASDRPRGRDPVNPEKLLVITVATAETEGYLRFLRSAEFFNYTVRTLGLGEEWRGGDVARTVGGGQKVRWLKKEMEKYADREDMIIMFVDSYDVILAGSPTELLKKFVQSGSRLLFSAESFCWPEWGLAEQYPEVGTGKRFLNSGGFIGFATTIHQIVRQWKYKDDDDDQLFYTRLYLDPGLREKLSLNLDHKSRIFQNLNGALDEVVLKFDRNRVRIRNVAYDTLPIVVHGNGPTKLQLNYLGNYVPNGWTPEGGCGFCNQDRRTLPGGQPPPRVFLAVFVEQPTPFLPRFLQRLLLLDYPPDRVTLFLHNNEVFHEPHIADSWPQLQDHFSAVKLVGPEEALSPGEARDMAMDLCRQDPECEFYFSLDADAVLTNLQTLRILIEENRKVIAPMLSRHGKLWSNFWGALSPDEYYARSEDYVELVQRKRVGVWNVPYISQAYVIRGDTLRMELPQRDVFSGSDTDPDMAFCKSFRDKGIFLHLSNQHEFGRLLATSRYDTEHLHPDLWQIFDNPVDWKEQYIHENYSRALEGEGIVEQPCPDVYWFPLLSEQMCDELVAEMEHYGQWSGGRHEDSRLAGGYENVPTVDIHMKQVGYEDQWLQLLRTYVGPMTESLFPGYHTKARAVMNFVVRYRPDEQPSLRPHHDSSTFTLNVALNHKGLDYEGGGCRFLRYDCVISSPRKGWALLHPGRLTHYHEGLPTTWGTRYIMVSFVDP
UniProt Q5JVF3: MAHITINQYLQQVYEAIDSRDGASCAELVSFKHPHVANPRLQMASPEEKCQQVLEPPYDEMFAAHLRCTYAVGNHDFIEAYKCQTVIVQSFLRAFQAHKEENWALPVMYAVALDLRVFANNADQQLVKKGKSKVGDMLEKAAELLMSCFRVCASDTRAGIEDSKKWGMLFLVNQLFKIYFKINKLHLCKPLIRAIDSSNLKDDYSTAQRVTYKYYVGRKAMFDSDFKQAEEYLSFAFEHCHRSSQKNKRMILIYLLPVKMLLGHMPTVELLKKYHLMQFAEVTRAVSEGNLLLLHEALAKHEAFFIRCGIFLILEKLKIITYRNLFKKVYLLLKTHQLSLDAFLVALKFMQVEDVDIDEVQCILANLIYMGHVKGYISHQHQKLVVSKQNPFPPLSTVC
UniProt Q00169: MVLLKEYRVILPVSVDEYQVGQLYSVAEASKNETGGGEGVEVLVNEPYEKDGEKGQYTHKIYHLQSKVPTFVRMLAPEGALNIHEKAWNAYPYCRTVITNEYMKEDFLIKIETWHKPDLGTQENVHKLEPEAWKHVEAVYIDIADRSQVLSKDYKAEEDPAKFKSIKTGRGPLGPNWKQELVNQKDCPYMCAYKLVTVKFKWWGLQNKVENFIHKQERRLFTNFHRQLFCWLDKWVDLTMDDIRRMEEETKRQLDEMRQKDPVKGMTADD
UniProt Q9BZF3: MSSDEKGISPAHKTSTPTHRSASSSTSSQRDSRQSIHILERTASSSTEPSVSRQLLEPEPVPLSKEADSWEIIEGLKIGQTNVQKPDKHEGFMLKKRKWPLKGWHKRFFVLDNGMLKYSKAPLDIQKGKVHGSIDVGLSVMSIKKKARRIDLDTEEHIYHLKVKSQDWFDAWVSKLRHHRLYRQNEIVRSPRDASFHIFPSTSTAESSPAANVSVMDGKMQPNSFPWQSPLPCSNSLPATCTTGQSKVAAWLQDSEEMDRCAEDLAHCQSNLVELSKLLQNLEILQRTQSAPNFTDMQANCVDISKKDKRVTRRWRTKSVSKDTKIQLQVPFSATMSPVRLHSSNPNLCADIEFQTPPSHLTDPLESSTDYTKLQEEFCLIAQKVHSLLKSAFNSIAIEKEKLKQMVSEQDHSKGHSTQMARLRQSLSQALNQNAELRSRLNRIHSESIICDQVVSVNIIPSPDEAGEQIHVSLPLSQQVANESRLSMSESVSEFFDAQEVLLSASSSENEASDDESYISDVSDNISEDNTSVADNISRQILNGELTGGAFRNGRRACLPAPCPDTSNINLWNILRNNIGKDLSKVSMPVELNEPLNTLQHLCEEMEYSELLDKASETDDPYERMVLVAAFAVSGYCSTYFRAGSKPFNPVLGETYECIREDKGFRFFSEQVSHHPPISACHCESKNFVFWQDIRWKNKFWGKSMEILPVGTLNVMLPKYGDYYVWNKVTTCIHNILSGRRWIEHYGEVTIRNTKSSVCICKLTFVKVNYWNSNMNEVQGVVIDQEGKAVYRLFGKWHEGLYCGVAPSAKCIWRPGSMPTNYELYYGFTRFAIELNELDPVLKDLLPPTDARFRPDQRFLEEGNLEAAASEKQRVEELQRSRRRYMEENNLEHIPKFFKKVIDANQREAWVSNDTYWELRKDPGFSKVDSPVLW
UniProt Q86TG7: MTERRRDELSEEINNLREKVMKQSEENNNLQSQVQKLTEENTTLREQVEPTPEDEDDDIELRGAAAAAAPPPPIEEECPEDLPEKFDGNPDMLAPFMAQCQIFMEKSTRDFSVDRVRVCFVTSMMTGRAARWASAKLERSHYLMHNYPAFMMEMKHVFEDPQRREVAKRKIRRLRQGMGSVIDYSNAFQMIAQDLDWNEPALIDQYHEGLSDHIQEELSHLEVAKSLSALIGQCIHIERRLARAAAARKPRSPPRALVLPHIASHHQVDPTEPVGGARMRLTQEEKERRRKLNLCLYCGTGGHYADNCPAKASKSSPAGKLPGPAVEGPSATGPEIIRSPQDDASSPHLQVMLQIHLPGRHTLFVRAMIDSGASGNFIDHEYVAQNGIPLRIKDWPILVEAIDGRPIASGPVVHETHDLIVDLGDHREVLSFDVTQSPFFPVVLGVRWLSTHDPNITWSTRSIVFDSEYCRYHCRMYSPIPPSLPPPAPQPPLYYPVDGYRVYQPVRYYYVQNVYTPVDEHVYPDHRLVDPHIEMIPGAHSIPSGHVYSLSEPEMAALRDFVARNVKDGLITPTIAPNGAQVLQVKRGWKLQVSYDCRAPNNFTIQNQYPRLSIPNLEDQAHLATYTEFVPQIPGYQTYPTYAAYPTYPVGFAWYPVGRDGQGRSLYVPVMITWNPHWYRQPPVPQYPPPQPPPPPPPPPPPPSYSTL
UniProt P61457: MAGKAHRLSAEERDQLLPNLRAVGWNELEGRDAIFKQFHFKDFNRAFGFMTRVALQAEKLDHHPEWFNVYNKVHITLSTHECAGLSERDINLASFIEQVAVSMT
UniProt O00625: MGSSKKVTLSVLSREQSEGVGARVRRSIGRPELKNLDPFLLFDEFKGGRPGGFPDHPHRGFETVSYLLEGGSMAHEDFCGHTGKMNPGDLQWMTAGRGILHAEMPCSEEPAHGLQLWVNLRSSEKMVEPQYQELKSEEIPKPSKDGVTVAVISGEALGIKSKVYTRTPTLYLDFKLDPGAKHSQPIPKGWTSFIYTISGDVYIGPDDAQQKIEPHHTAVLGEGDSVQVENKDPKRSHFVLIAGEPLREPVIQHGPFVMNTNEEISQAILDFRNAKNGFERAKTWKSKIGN
UniProt Q9NWQ8: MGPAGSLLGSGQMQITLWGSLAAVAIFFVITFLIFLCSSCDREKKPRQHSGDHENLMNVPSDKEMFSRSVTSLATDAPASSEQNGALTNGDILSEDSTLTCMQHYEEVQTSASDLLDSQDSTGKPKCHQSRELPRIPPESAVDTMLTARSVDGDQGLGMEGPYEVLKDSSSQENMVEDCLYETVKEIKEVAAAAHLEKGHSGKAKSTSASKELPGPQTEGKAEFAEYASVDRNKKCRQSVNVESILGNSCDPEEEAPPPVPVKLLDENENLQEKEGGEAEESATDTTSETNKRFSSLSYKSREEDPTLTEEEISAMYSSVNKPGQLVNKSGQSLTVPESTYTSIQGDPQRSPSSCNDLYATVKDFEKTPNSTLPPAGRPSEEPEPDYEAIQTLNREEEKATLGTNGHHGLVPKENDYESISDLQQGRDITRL
UniProt P68402: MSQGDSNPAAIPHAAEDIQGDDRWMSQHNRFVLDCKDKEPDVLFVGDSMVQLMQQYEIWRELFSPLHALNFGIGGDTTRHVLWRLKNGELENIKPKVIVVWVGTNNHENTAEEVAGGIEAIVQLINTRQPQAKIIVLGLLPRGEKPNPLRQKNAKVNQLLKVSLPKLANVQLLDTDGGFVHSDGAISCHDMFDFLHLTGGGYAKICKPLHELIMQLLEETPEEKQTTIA
UniProt Q53EL6: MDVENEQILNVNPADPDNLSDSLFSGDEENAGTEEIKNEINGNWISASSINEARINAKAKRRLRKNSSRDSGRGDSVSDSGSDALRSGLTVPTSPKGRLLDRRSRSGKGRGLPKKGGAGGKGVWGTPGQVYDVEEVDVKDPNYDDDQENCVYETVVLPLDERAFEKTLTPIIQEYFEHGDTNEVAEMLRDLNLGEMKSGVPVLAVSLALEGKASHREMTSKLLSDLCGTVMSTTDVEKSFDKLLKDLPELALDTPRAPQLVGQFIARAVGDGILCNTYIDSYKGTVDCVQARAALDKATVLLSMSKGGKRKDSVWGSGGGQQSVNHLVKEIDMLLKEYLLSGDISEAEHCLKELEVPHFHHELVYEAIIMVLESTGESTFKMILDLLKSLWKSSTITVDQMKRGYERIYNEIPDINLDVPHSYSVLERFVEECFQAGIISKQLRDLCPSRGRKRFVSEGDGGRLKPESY
UniProt Q8WXW3: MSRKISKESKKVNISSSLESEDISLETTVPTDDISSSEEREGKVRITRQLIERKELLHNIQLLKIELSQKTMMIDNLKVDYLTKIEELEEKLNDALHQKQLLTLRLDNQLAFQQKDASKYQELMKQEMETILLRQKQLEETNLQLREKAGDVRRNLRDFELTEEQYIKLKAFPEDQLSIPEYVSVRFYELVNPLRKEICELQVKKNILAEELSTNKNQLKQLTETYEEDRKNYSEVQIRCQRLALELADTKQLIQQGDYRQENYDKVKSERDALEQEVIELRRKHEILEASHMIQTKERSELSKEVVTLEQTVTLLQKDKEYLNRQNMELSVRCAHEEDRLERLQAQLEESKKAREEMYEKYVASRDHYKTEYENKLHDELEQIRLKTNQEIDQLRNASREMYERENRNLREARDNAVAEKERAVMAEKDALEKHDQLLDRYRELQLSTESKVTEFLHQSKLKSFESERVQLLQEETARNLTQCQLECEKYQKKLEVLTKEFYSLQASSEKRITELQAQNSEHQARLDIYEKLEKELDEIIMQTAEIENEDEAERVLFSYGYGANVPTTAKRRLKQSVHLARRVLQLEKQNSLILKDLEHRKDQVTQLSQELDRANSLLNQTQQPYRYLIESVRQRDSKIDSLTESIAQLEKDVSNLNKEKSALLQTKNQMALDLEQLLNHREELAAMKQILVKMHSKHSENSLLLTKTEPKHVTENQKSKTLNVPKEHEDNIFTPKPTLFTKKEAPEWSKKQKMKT
UniProt Q8NB37: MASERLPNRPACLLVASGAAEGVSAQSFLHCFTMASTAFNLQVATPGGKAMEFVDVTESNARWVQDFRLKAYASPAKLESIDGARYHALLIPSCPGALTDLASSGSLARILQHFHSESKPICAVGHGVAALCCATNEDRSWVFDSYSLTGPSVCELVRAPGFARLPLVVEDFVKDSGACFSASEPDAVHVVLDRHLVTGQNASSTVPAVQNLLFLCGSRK
UniProt O60925, whole entry: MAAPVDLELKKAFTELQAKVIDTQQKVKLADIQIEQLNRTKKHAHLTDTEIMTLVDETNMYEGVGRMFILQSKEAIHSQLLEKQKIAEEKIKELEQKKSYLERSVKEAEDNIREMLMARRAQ

These targets were tested with COc1ccc(Cn2ccc3cc(C)c(C(=O)NO)cc32)cc1 (assay: dose-dependent thermal stabilisation call (2D-TPP, DLPTP, 10% FDR) (binary (1 = stabilised)); higher = stabilised by the compound). Details: system: HL-60 intact cells; concentration range 0.04-10 µM.
Procedure: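 2D thermal proteome profiling in intact HL-60 cells treated with BRD-3811 (0, 0.04, 0.29, 2, 10 uM) for 90 min at 37 C, then heated 3 min at one of 12 temperatures (42-63.9 C). Soluble protein was quantified by TMT10 MS. The value is the DLPTP call of the paper: dose-dependent thermal stabilisation over all temperatures at 10% FDR (F-test of a dose-response against a flat model); one experiment, one call per tested protein.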

Target	dose-dependent thermal stabilisation call
PIP4K2B (UniProt P78356)	inactive: 0
PHF23 (UniProt Q9BUL5)	inactive: 0
P4HB (UniProt P07237)	inactive: 0
PKN2 (UniProt Q16513)	inactive: 0
PDE5A (UniProt O76074)	inactive: 0
PHACTR4 (UniProt Q8IZ21)	inactive: 0
PAICS (UniProt P22234)	inactive: 0
PABPC4 (UniProt Q13310)	inactive: 0
PLOD3 (UniProt O60568)	inactive: 0
PCID2 (UniProt Q5JVF3)	inactive: 0
OGFOD1 (UniProt Q8N543)	inactive: 0
PARS2 (UniProt Q7L3T8)	inactive: 0
PGRMC2 (UniProt O15173)	inactive: 0
PASK (UniProt Q96RG2)	inactive: 0
PITPNA (UniProt Q00169)	inactive: 0
OSBPL6 (UniProt Q9BZF3)	inactive: 0
PDZD8 (UniProt Q8NEN9)	inactive: 0
PEG10 (UniProt Q86TG7)	inactive: 0

Quoted from the listing.
For dose-dependent thermal stabilisation call, PHF23 (UniProt Q9BUL5) is listed with inactive: 0
For dose-dependent thermal stabilisation call, PDE5A (UniProt O76074) is listed with inactive: 0

The list goes on.

Target	dose-dependent thermal stabilisation call
P76	inactive: 0
PDPK1 (UniProt O15530)	inactive: 0
PCBD1 (UniProt P61457)	inactive: 0
PLCB2 (UniProt Q00722)	inactive: 0
PIR (UniProt O00625)	inactive: 0
PAG1 (UniProt Q9NWQ8)	inactive: 0
PCK2 (UniProt Q16822)	inactive: 0
PDS5B (UniProt Q9NTI5)	inactive: 0
PATL1 (UniProt Q86TB9)	inactive: 0
PAN2 (UniProt Q504Q3)	inactive: 0
PAFAH1B2 (UniProt P68402)	inactive: 0
PDCD4 (UniProt Q53EL6)	inactive: 0
PGLS (UniProt O95336)	inactive: 0
PIBF1 (UniProt Q8WXW3)	inactive: 0
PDDC1 (UniProt Q8NB37)	inactive: 0
PCMT1 (UniProt P22061)	inactive: 0
PI4K2B (UniProt Q8TCG2)	inactive: 0
PFDN1 (UniProt O60925)	inactive: 0
